Primary screen of a compound library

Results are given as percent effect. The record does not define 0% and 100%; most values in the screen are far below 50% and negative numbers occur (in some assays of this library far below -100). Compounds were drawn at random from those tested, without regard to their results. Two or more numbers in one place are separate tests of the same structure; such repeats can differ widely.

Mtb glucose medium: 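Growth of Mycobacterium tuberculosis over 3 days (7H9 medium with glucose and tyloxapol); the read-out is not stated. Compounds at 50 µM. Direction is inferred from retests: higher values go with more growth inhibition. About 69,000 compounds were tested under these conditions; 1.1% (about 760) showed 50% or more at least once.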
Mtb cholesterol medium: 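Growth of Mycobacterium tuberculosis over 4 days (cholesterol / DPPC medium with tyloxapol); the read-out is not stated. Tested at 50 µM. Higher reads as more growth inhibition (inferred: compounds with an IC50 in retests scored well above the rest). Size under these conditions: about 69,000 compounds, about 370 of them at 50% or above in at least one test.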

Result for CCc1nc(NS(=O)(=O)c2ccc(F)cc2C)no1 was Mtb glucose medium: 16.88%; Mtb cholesterol medium: 3.123%. With Cn1cc(CNC2CCOCC2)c(-c2cc3ccccc3o2)n1 the screen gave Mtb glucose medium: 11.08%; Mtb cholesterol medium: 23.26%. Result for Cc1cccc(C(C(=O)NCC2(O)CCCCC2)N(C)C)c1 (stereo not given) was Mtb glucose medium: 4.668%; Mtb cholesterol medium: -18.33%. Result for O=C(NCCC1=CCCCC1)C1CCN(c2ccc3nncn3n2)CC1 was Mtb glucose medium: 11.54%; Mtb cholesterol medium: -35.52%. Cc1cccc(-c2nc(C)nn2CC(=O)NC2CCCC2)c1 read Mtb glucose medium: 16.57%; Mtb cholesterol medium: 3.995%. Result for CCN(C)C[C@@H]1CN(S(=O)(=O)c2cccc(Cl)c2)C[C@@H]1CO was Mtb glucose medium: 19.23%; Mtb cholesterol medium: -0.7604% & -12.23%.

For [H][C@]12CCN(C(=O)c3ccsc3)[C@@]1([H])CCC(=O)N2Cc1csc(C)n1 the result was Mtb glucose medium: 15.51%; Mtb cholesterol medium: -8.465%. Result for O=C1CC(NCc2ncc[nH]2)CN1CCc1cccc(Cl)c1 (stereo not given) was Mtb glucose medium: 16.37%; Mtb cholesterol medium: 9.856%. Cc1cnc(CN(Cc2cccc(O)c2)CC2CC2)cn1 gave Mtb glucose medium: -1.21%; Mtb cholesterol medium: 6.52%. Result for O=C(O)C(F)(F)F.[H][C@@]12CCN(C(=O)COCC)C[C@]1(COc1ncccc1F)CCO2 was Mtb glucose medium: -1.744% & 2.558%; Mtb cholesterol medium: -7.715% & 3.641%. Result for O=C(O)C(F)(F)F.[H][C@@]12CCCO[C@]1([H])[C@H](Oc1ncccc1F)CN2S(=O)(=O)CCC was Mtb glucose medium: 19.02%; Mtb cholesterol medium: 14.71%. For CC(=O)N1CC(C(=O)N2CCCC(Cn3ccnc3C)C2)C1 (stereo not given) the result was Mtb glucose medium: -11.87%; Mtb cholesterol medium: 10.08% & -1.78%.

Result for COc1cc(N2CC3(CCN(S(=O)(=O)C4CC4)C3)C2)ncn1 was Mtb glucose medium: -7.724% & 2.145%; Mtb cholesterol medium: -17.52% & 11.55%. For O=C(O)c1nnn(-c2ccc(F)c(F)c2)c1-c1ccncc1 the result was Mtb glucose medium: -23.47% & -5.169%; Mtb cholesterol medium: -20.13%. CS(=O)(=O)CCNC(=O)c1cc2ccccc2nc1N1CCCC1 gave Mtb glucose medium: -10.72%; Mtb cholesterol medium: -2.809%. CCc1nnc2n1CCN(Cc1csc(-c3ccccc3)n1)C2 read Mtb glucose medium: -3.347%; Mtb cholesterol medium: -26.75%. CCc1nnc(CN(C)C(=O)C2CC(=O)N(C3CC3)C2)o1 (stereo not given) gave Mtb glucose medium: -30.92%; Mtb cholesterol medium: 2.625%. COc1ccc(C2CCCCCN2S(C)(=O)=O)cc1 (stereo not given) gave Mtb glucose medium: 11.95%; Mtb cholesterol medium: -3.62%.

Result for CCc1cc(NCC(N)=O)nc(N2CCCCC2)n1 was Mtb glucose medium: 16.01%; Mtb cholesterol medium: 5.403%. O=C(O)C(F)(F)F.[H][C@@]12CCN(Cc3ccc(C)o3)C[C@@]1([H])O[C@@H](c1nnc(C)[nH]1)C2 gave Mtb glucose medium: -13.21%; Mtb cholesterol medium: 13.87%. For Cc1cc(NCc2csc(-c3ccsc3)n2)no1 the result was Mtb glucose medium: 32.44%; Mtb cholesterol medium: 34.05%. For O=C(O)C(F)(F)F.O=C(O)C(F)(F)F.[H][C@@]12CN(Cc3cccs3)CCO[C@]1([H])CN(C1CCOCC1)C2 the result was Mtb glucose medium: 7.456% & 11.51%; Mtb cholesterol medium: 5.544%. Result for Cn1cnnc1CN1CCC2(CCCN(C3CCCC3)C2=O)C1 (stereo not given) was Mtb glucose medium: -9.645%; Mtb cholesterol medium: 3.202%. Result for O=C(C1CCOC1)N1CC2(CCN(c3ccccc3)C2)C1 (stereo not given) was Mtb glucose medium: -17.09%; Mtb cholesterol medium: -19.05%.

The last 2 entries again:

SMILES,Mtb glucose medium,Mtb cholesterol medium
Cn1cnnc1CN1CCC2(CCCN(C3CCCC3)C2=O)C1 (stereo not given),-9.645%,3.202%
O=C(C1CCOC1)N1CC2(CCN(c3ccccc3)C2)C1 (stereo not given),-17.09%,-19.05%

Data taken from ChEMBL document CHEMBL3988442, “University of Dundee, Small-Polar-MMV Screening Library” (2021).